Test results: patent publication US12729225B2, “Non-canonical SWI/SNF complex and uses thereof” (Dana-Farber Cancer Institute, Inc., priority 2018, dated 2026)

B1: LMNA (protein, UniProt P02545 1-661, looked up)
Prelamin-A/C: METPSQRRATRSGAQASSTPLSPTRITRLQEKEDLQELNDRLAVYIDRVRSLETENAGLRLRITESEEVVSREVSGIKAAYEAELGDARKTLDSVAKERARLQLELSKVREEFKELKARNTKKEGDLIAAQARLKDLEALLNSKEAALSTALSEKRTLEGELHDLRGQVAKLEAALGEAKKQLQDEMLRRVDAENRLQTMKEELDFQKNIYSEELRETKRRHETRLVEIDNGKQREFESRLADALQELRAQHEDQVEQYKKELEKTYSAKLDNARQSAERNSNLVGAAHEELQQSRIRIDSLSAQLSQLQKQLAAKEAKLRDLEDSLARERDTSRRLLAEKEREMAEMRARMQQQLDEYQELLDIKLALDMEIHAYRKLLEGEEERLRLSPSPTSQRSRGRASSHSSQTQGGGSVTKKRKLESTESRSSFSQHARTSGRVAVEEVDEEGKFVRLRNKSNEDQSMGNWQIKRQNGDDPLLTYRFPPKFTLKAGQVVTIWAAGAGATHSPPTDLVWKAQNTWGCGNSLRTALINSTGEEVAMRKLVRSVTVVEDDEDEDGDDLLHHHHGSHCSSSGDPAEYNLRSRTVLCGTCGQPADKASASGSGAQVGGPISSGSSASSVTVTRSYRSVGGSGGGSFGDNLVTRSYLLGNSSPRTQSPQNC
B2: HADHB (protein, UniProt P55084 34-474, looked up)
Trifunctional enzyme subunit …: AAPAVQTKTKKTLAKPNIRNVVVVDGVRTPFLLSGTSYKDLMPHDLARAALTGLLHRTSVPKEVVDYIIFGTVIQEVKTSNVAREAALGAGFSDKTPAHTVTMACISANQAMTTGVGLIASGQCDVIVAGGVELMSDVPIRHSRKMRKLMLDLNKAKSMGQRLSLISKFRFNFLAPELPAVSEFSTSETMGHSADRLAAAFAVSRLEQDEYALRSHSLAKKAQDEGLLSDVVPFKVPGKDTVTKDNGIRPSSLEQMAKLKPAFIKPYGTVTAANSSFLTDGASAMLIMAEEKALAMGYKPKAYLRDFMYVSQDPKDQLLLGPTYATPKVLEKAGLTMNDIDAFEFHEAFSGQILANFKAMDSDWFAENYMGRKTKVGLPPLEKFNNWGGSLSLGHPFGATGCRLVMAAANRLRKEGGQYGLVAACAAGGQGHAMIVEAYPK
B3: NOM1 (protein, UniProt Q5C9Z4 1-860, looked up)
Nucleolar MIF4G …: MAASRSAGEAGPGGSQGRVVRMKRRGGRGPRRGPAGGGEKALKRLKLAVEEFVHATSEGEAPGGCEGRGAPVSFRPGGRKSRKELRKEKRHLRKARRLQRTAGPEQGPGLGGRSGAEEASGHRQDTEERARPAPSRDPSPPRKPRPSRVKAKATAATAKTRPSAAATAAARKRALLAANEEEDREIRKLERCLGLNKRKKKDGSSSVPLSFARDGLDYILGALESGKNSGLYDSSGEEEEDAGQTLPESDLESDSQDESEEEEEGDVEKEKKAQEAEAQSEDDDEDTEEEQGEEKEKGAQEKRRGKRVRFAEDEEKSENSSEDGDITDKSLCGSGEKYIPPHVRQAEETVDFKKKEELERLKKHVKGLLNRLSEPNMASISGQLEELYMAHSRKDMNDTLTSALMGACVTASAMPSRLMMEHVLLVSILHHTVGIEVGAHFLEAVVRKFDAIYKYGSEGKECDNLFTVIAHLYNFHVVQSLLIFDILKKLIGTFTEKDIELILLMLKNVGFSLRKDDALSLKELITEAQTKASGAGSEFQDQTRIRFMLETMLALKNNDMRKIPGYDPEPVEKLRKLQRALVRNAGSGSETQLRVSWDSVLSAEQTGRWWIVGSAWSGAPMIDNSHHTHLQKQLVGTVSSKILELARKQRMNTDIRRNIFCTIMTSEDFLDAFEKLLKLGLKDQQEREIIHVLMDCCLQEKTYNPFYAFLASKFCEYERRFQMTFQFSIWDKFRDLENLPATNFSNLVHLVAHLLKTKSLSLSILKVVEFSELDKPRVRFLRKVLSILLMETEVEDLSLIFTRVSDNPKLGVLREGLKLFISHFLLKNAQAHRSADEANVLREKADLATKCLQGKASLRM
B4: MCM4 (protein, UniProt P33991 2-863, looked up)
DNA replication licensing …: SSPASTPSRRGSRRGRATPAQTPRSEDARSSPSQRRRGEDSTSTGELQPMPTSPGVDLQSPAAQDVLFSSPPQMHSSAIPLDFDVSSPLTYGTPSSRVEGTPRSGVRGTPVRQRPDLGSAQKGLQVDLQSDGAAAEDIVASEQSLGQKLVIWGTDVNVAACKENFQRFLQRFIDPLAKEEENVGIDITEPLYMQRLGEINVIGEPFLNVNCEHIKSFDKNLYRQLISYPQEVIPTFDMAVNEIFFDRYPDSILEHQIQVRPFNALKTKNMRNLNPEDIDQLITISGMVIRTSQLIPEMQEAFFQCQVCAHTTRVEMDRGRIAEPSVCGRCHTTHSMALIHNRSLFSDKQMIKLQESPEDMPAGQTPHTVILFAHNDLVDKVQPGDRVNVTGIYRAVPIRVNPRVSNVKSVYKTHIDVIHYRKTDAKRLHGLDEEAEQKLFSEKRVELLKELSRKPDIYERLASALAPSIYEHEDIKKGILLQLFGGTRKDFSHTGRGKFRAEINILLCGDPGTSKSQLLQYVYNLVPRGQYTSGKGSSAVGLTAYVMKDPETRQLVLQTGALVLSDNGICCIDEFDKMNESTRSVLHEVMEQQTLSIAKAGIICQLNARTSVLAAANPIESQWNPKKTTIENIQLPHTLLSRFDLIFLLLDPQDEAYDRRLAHHLVALYYQSEEQAEEELLDMAVLKDYIAYAHSTIMPRLSEEASQALIEAYVDMRKIGSSRGMVSAYPRQLESLIRLAEAHAKVRLSNKVEAIDVEEAKRLHREALKQSATDPRTGIVDISILTTGMSATSRKRKEELAEALKKLILSKGKTPALKYQQLFEDIRGQSDIAITKDMFEEALRALADDDFLTVTGKTVRLL
B5: GDPD3 (protein, UniProt Q7L5L3 1-318, looked up)
Lysophospholipase D GDPD3: MSLLLYYALPALGSYAMLSIFFLRRPHLLHTPRAPTFRIRLGAHRGGSGELLENTMEAMENSMAQRSDLLELDCQLTRDRVVVVSHDENLCRQSGLNRDVGSLDFEDLPLYKEKLEVYFSPGHFAHGSDRRMVRLEDLFQRFPRTPMSVEIKGKNEELIREIAGLVRRYDRNEITIWASEKSSVMKKCKAANPEMPLSFTISRGFWVLLSYYLGLLPFIPIPEKFFFCFLPNIINRTYFPFSCSCLNQLLAVVSKWLIMRKSLIRHLEERGVQVVFWCLNEESDFEAAFSVGATGVITDYPTALRHYLDNHGPAARTS
B6: WAPAL (protein, UniProt Q7Z5K2 1-1190, looked up)
Wings apart-like protein …: MTSRFGKTYSRKGGNGSSKFDEVFSNKRTTLSTKWGETTFMAKLGQKRPNFKPDIQEIPKKPKVEEESTGDPFGFDSDDESLPVSSKNLAQVKCSSYSESSEAAQLEEVTSVLEANSKISHVVVEDTVVSDKCFPLEDTLLGKEKSTNRIVEDDASISSCNKLITSDKVENFHEEHEKNSHHIHKNADDSTKKPNAETTVASEIKETNDTWNSQFGKRPESPSEISPIKGSVRTGLFEWDNDFEDIRSEDCILSLDSDPLLEMKDDDFKNRLENLNEAIEEDIVQSVLRPTNCRTYCRANKTKSSQGASNFDKLMDGTSQALAKANSESSKDGLNQAKKGGVSCGTSFRGTVGRTRDYTVLHPSCLSVCNVTIQDTMERSMDEFTASTPADLGEAGRLRKKADIATSKTTTRFRPSNTKSKKDVKLEFFGFEDHETGGDEGGSGSSNYKIKYFGFDDLSESEDDEDDDCQVERKTSKKRTKTAPSPSLQPPPESNDNSQDSQSGTNNAENLDFTEDLPGVPESVKKPINKQGDKSKENTRKIFSGPKRSPTKAVYNARHWNHPDSEELPGPPVVKPQSVTVRLSSKEPNQKDDGVFKAPAPPSKVIKTVTIPTQPYQDIVTALKCRREDKELYTVVQHVKHFNDVVEFGENQEFTDDIEYLLSGLKSTQPLNTRCLSVISLATKCAMPSFRMHLRAHGMVAMVFKTLDDSQHHQNLSLCTAALMYILSRDRLNMDLDRASLDLMIRLLELEQDASSAKLLNEKDMNKIKEKIRRLCETVHNKHLDLENITTGHLAMETLLSLTSKRAGDWFKEELRLLGGLDHIVDKVKECVDHLSRDEDEEKLVASLWGAERCLRVLESVTVHNPENQSYLIAYKDSQLIVSSAKALQHCEELIQQYNRAEDSICLADSKPLPHQNVTNHVGKAVEDCMRAIIGVLLNLTNDNEWGSTKTGEQDGLIGTALNCVLQVPKYLPQEQRFDIRVLGLGLLINLVEYSARNRHCLVNMETSCSFDSSICSGEGDDSLRIGGQVHAVQALVQLFLERERAAQLAESKTDELIKDAPTTQHDKSGEWQETSGEIQWVSTEKTDGTEEKHKKEEEDEELDLNKALQHAGKHMEDCIVASYTALLLGCLCQESPINVTTVREYLPEGDFSIMTEMLKKFLSFMNLTCAVGTTGQKSISRVIEYLEHC
B7: SMC3 (protein, UniProt Q9UQE7 1-1217, looked up)
Structural maintenance of …: MYIKQVIIQGFRSYRDQTIVDPFSSKHNVIVGRNGSGKSNFFYAIQFVLSDEFSHLRPEQRLALLHEGTGPRVISAFVEIIFDNSDNRLPIDKEEVSLRRVIGAKKDQYFLDKKMVTKNDVMNLLESAGFSRSNPYYIVKQGKINQMATAPDSQRLKLLREVAGTRVYDERKEESISLMKETEGKREKINELLKYIEERLHTLEEEKEELAQYQKWDKMRRALEYTIYNQELNETRAKLDELSAKRETSGEKSRQLRDAQQDARDKMEDIERQVRELKTKISAMKEEKEQLSAERQEQIKQRTKLELKAKDLQDELAGNSEQRKRLLKERQKLLEKIEEKQKELAETEPKFNSVKEKEERGIARLAQATQERTDLYAKQGRGSQFTSKEERDKWIKKELKSLDQAINDKKRQIAAIHKDLEDTEANKEKNLEQYNKLDQDLNEVKARVEELDRKYYEVKNKKDELQSERNYLWREENAEQQALAAKREDLEKKQQLLRAATGKAILNGIDSINKVLDHFRRKGINQHVQNGYHGIVMNNFECEPAFYTCVEVTAGNRLFYHIVDSDEVSTKILMEFNKMNLPGEVTFLPLNKLDVRDTAYPETNDAIPMISKLRYNPRFDKAFKHVFGKTLICRSMEVSTQLARAFTMDCITLEGDQVSHRGALTGGYYDTRKSRLELQKDVRKAEEELGELEAKLNENLRRNIERINNEIDQLMNQMQQIETQQRKFKASRDSILSEMKMLKEKRQQSEKTFMPKQRSLQSLEASLHAMESTRESLKAELGTDLLSQLSLEDQKRVDALNDEIRQLQQENRQLLNERIKLEGIITRVETYLNENLRKRLDQVEQELNELRETEGGTVLTATTSELEAINKRVKDTMARSEDLDNSIDKTEAGIKELQKSMERWKNMEKEHMDAINHDTKELEKMTNRQGMLLKKKEECMKKIRELGSLPQEAFEKYQTLSLKQLFRKLEQCNTELKKYSHVNKKALDQFVNFSEQKEKLIKRQEELDRGYKSIMELMNVLELRKYEAIQLTFKQVSKNFSEVFQKLVPGGKATLVMKKGDVEGSQSQDEGEGSGESERGSGSQSSVPSVDQFTGVGIRVSFTGKQGEMREMQQLSGGQKSLVALALIFAIQKCDPAPFYLFDEIDQALDAQHRKAVSDMIMELAVHAQFITTTFRPELLESADKFYGVKFRNKVSHIDVITAEMAKDFVEDDTTHG

tested on: mSWI/SNF complexes; experiment: mSWI/SNF complex purification with HA-tagged baits and mass spectrometry (peptide counts); design: species or system human; details: 293_HA-BRD7: HA-BRD7 bait purification, total peptide count per co-purified protein

Molecule	Total
B1	13
B2	8
B3	4
B4	7

same assay, conditions: 293_HA-BRD7: HA-BRD7 bait purification, unique peptide count per co-purified protein

Molecule	Unique
B1	13
B2	8
B3	4
B4	6

same assay, conditions: total peptide count of the co-purified protein; 293_HA-BRD9 (HA-BRD9 bait, mass spectrometry), Table 3b

Molecule	Total
B5	1
B6	1
B1	1
B2	1
B7	1
B3	1
B4	1

same assay, conditions: unique peptide count of the co-purified protein; 293_HA-BRD9 (HA-BRD9 bait, mass spectrometry), Table 3b

Molecule	Unique
B5	1
B6	1
B1	1
B2	1
B7	1
B3	1
B4	1
